No constants are given. Whether binding was seen depends on the method and setting.
Columns and labels:
[1] = target: 3Cys3Ala Atox1 (human) (UniProt O00244); assay: SEC; Superdex 75 10/300, 6°C, 40 mM TrisHCl, 50 mM NaCl, pH 7.6; 150 µM protein with 1 eq. CuCl2 pre-added; no CisPt; both purified
[2] = target: 3Cys3Ala Atox1 (human) (UniProt O00244); assay: SEC; Superdex 75 10/300 analytical column, 6°C, 40 mM TrisHCl, 50 mM NaCl, pH 7.6; 150 µM apo-protein, 100 µl injected; no Cu, no CisPt; both purified
[3] = target: 3Cys3Ala Atox1 (human) (UniProt O00244); assay: SEC; Superdex 75 10/300, 6°C, 40 mM TrisHCl, 50 mM NaCl, pH 7.6; 150 µM protein with 1 eq. Cu and 1 or 5 eq. CisPt, or preformed protein-CisPt (1:1) treated with Cu; incubated 10 min; both purified
[4] = target: 3Cys3Ala Atox1 (human) (UniProt O00244); assay: SEC; Superdex 75 10/300, 6°C, 40 mM TrisHCl, 50 mM NaCl, pH 7.6; 150 µM apo-protein with 5 eq. (excess) CisPt, incubated 10 min; both purified

Measured: binding

B1: 3Cys3Ala Atox1 (protein, UniProt O00244 1-68)
chain: MPKHEFSVDMTAGGAAEAVSRVLNKLGGVKYDIDLPNKKVAIESEHSMDTLLATLKKTGKTVSYLGLE
no binding (tested: 150 µM): all assays above

Source: PMC3728025
